Assay results as given in the supplement of paper PMC10849652.
Some of the results follow.

Chains of the proteins cited; added tags and fusions are not shown. Lines headed by an entry give the natural chain unless they say otherwise; changes in a name come on top.
UniProt Q9Y316: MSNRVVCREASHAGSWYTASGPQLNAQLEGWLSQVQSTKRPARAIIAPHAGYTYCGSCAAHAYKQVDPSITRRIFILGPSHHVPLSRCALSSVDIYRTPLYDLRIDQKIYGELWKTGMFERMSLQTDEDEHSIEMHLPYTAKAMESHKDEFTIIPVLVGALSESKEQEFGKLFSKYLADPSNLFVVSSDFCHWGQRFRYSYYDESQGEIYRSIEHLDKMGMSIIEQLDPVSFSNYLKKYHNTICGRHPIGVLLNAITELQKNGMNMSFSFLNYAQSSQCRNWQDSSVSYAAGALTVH
UniProt Q9ULC4: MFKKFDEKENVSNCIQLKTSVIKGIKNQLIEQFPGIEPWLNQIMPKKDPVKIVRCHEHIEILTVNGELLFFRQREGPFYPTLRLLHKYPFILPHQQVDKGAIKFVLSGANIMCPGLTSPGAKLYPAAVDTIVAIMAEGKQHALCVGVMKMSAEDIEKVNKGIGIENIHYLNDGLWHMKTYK
UniProt P33993, whole entry, looked up: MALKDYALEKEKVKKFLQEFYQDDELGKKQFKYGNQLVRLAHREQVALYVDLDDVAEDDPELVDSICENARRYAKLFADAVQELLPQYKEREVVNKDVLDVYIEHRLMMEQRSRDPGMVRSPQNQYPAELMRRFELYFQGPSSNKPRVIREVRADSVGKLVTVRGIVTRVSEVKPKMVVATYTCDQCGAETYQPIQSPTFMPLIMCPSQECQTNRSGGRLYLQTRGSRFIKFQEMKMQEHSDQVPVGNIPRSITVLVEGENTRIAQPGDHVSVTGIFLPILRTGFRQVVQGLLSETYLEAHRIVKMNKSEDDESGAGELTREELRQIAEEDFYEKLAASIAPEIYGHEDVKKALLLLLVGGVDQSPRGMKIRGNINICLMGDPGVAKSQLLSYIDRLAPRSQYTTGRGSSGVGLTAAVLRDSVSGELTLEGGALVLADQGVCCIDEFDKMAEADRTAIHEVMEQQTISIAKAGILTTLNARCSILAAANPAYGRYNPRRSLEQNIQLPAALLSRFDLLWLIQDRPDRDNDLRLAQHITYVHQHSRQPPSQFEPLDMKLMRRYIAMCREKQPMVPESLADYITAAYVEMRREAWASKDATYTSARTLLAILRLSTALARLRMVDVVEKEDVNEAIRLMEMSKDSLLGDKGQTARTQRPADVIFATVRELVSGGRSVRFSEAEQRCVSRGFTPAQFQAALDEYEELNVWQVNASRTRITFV
UniProt Q9NWR8: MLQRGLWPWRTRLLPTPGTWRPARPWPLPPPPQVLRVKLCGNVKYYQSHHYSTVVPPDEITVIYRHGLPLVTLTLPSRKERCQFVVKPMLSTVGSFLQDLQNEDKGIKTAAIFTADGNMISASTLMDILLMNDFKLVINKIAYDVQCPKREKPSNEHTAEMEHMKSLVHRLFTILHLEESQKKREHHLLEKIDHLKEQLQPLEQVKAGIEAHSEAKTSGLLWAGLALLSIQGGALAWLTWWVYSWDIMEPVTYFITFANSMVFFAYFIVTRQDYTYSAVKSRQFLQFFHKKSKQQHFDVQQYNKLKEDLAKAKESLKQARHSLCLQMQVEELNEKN
UniProt Q00266: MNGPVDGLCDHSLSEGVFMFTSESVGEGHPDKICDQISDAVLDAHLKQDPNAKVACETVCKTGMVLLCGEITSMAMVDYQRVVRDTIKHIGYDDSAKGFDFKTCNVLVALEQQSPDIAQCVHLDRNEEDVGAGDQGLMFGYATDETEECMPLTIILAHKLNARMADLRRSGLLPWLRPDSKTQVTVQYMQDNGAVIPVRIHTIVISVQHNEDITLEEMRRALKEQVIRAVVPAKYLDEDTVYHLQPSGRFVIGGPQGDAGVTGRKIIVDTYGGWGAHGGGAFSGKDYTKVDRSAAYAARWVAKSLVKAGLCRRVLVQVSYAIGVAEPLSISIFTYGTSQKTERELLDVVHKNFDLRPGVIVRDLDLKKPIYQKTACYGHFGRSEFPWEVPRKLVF
UniProt Q8IVS2: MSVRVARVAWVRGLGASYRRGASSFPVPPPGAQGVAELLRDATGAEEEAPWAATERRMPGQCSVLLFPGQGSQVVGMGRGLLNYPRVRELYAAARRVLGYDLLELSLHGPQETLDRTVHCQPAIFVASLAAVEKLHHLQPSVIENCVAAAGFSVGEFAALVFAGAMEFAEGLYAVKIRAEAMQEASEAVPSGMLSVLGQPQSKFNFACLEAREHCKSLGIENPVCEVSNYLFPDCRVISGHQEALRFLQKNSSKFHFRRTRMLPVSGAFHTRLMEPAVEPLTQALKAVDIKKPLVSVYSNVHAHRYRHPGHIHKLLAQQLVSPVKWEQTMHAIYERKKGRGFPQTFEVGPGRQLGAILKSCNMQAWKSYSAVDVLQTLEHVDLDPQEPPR
UniProt P56270: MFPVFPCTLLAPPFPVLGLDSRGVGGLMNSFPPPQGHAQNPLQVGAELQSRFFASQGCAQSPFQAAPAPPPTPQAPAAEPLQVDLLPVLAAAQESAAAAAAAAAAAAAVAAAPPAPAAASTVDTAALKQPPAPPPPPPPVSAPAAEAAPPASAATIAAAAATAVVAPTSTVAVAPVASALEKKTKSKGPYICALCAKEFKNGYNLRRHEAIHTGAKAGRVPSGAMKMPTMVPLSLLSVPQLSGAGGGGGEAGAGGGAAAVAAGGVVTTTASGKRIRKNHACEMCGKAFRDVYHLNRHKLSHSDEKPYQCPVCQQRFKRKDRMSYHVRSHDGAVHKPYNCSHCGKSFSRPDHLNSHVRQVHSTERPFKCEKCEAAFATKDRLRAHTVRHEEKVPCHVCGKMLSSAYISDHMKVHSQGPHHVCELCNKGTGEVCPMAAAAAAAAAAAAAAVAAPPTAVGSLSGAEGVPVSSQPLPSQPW
UniProt Q14566: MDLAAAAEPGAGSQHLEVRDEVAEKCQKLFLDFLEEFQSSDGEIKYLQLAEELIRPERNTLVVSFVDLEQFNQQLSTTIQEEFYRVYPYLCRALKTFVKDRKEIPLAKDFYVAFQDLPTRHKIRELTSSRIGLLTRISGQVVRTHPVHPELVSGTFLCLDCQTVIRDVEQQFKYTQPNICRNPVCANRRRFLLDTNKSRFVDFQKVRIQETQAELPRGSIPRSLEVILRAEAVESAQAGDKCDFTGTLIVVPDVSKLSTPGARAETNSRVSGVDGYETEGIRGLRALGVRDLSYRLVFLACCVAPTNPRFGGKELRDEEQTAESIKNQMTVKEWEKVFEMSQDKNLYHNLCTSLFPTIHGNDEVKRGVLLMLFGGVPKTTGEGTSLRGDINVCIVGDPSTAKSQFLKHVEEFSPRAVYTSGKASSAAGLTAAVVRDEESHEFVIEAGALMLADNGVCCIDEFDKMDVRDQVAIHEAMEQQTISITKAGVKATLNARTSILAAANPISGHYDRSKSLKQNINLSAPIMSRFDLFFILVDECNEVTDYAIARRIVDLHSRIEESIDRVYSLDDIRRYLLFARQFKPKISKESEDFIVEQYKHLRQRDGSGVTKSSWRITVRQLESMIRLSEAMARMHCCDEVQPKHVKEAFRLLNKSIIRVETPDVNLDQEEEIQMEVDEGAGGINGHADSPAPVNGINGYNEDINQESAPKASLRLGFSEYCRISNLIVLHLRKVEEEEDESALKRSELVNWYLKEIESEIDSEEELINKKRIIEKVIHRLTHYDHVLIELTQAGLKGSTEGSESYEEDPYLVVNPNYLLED
UniProt Q86U44, whole entry, looked up: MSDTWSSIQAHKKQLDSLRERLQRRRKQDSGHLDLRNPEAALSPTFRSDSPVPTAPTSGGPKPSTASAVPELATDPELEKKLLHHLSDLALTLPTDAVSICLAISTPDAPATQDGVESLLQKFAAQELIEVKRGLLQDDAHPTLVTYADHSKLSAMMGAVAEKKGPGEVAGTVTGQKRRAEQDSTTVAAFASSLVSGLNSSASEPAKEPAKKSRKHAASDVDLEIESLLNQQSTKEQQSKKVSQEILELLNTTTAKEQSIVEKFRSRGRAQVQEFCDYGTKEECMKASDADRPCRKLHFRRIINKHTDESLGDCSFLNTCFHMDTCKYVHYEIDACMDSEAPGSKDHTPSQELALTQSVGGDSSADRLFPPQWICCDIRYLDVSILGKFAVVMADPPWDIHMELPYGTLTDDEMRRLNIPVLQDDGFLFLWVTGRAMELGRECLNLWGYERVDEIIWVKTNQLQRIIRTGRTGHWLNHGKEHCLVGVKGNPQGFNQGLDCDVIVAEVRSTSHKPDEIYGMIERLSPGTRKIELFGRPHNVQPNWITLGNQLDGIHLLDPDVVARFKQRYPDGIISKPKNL
UniProt P51608, whole entry, looked up: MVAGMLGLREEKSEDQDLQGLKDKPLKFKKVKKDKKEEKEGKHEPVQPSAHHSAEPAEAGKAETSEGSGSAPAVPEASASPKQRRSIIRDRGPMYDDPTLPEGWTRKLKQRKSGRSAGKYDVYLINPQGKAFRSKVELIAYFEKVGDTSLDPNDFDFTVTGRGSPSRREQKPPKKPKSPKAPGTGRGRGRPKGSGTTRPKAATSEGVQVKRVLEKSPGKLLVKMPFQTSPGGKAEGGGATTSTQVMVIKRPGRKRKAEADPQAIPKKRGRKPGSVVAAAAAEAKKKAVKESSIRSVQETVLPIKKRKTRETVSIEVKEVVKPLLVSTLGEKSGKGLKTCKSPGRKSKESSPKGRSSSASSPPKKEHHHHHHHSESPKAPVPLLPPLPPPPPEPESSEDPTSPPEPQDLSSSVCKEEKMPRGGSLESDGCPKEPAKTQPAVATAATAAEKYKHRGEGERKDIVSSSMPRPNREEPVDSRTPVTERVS
UniProt Q14703: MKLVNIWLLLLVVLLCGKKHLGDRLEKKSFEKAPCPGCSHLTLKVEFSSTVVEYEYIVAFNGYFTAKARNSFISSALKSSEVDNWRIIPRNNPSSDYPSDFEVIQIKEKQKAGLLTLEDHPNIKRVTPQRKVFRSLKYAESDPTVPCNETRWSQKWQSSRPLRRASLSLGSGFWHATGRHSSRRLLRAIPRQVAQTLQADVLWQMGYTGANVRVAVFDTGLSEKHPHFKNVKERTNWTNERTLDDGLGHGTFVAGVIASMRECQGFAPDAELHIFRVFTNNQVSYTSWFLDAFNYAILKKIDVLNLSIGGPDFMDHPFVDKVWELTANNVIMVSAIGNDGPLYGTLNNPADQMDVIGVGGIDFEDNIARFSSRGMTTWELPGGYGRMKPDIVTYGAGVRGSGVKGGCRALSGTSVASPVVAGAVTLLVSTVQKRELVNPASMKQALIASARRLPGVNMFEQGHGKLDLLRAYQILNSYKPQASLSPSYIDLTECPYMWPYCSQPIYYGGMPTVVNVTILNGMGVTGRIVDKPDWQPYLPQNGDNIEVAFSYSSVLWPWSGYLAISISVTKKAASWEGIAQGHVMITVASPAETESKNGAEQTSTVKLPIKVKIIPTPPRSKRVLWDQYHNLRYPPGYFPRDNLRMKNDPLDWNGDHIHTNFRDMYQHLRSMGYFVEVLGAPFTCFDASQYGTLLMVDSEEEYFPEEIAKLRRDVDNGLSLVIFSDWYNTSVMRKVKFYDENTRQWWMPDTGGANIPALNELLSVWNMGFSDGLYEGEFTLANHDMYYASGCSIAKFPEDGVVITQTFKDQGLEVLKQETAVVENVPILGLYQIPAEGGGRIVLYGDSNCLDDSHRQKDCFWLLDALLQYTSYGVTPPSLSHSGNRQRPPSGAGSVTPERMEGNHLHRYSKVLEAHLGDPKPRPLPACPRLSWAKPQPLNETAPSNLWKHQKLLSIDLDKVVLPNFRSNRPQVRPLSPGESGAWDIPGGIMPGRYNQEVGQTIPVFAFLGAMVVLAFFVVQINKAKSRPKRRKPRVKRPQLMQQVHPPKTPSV
UniProt Q7Z434: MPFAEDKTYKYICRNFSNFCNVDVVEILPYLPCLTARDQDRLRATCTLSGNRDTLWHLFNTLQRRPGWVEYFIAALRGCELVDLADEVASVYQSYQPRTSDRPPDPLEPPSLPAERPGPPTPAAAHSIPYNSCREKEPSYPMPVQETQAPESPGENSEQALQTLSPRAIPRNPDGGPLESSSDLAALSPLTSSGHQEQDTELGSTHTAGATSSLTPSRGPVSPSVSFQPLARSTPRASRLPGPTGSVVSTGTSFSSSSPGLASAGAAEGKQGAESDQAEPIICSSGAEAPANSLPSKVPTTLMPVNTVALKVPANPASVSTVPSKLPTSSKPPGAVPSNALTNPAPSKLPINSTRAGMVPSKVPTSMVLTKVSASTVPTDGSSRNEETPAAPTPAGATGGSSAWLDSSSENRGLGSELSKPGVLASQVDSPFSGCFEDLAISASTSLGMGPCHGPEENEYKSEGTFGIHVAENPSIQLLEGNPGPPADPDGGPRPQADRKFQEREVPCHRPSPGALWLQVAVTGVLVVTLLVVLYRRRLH
UniProt Q8NI22: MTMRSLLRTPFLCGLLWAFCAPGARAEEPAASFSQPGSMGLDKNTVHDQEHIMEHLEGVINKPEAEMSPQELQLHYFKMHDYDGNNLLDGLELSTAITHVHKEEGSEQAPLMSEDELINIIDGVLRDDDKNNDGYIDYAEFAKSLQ

Key:
Test in all cases: log2 fold change, soluble protein after heating vs DMSO (PISA); higher = thermal stabilisation; K562 cells, 10 uM, 30 min; active = over 0.2 and 3.5 SD of the protein, either way, in both replicates (recomputed)
[1] = compound: CS(=O)(=O)c1ccc(-c2cnc(N)c(C(=O)Nc3ccccc3)n2)cc1
Procedure, shortened: (§1)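 For each measurement, 10 μM compound was applied for 30 min to K562 cells at 2×10^6 cells/mL. Aliquots were heated for 3 min across 48°C-58°C, pooled, and extracted in PBS with 0.5% NP-40 at 4°C; the supernatant after 21,000xg for 90 min was soluble protein. This was quantified by TMTpro 16plex LC-MS/MS with channel sums equalised, and thermal stability was reported relative to control samples from duplicates, on a log2 fold-change scale.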

crizotinib = compound: C[C@@H](Oc1cc(-c2cnn(C3CCNCC3)c2)cnc1N)c1c(Cl)ccc(F)c1Cl [crizotinib]
Procedure, shortened: as §1

[2] = compound: C[C@@H]1COCCN1C2=NC(=NC(=C2)C3(CC3)S(=O)(=O)C)C4=C5C=CNC5=CC=C4
Procedure, shortened: as §1

[3] = compound: C[C@H](C1=CC=C(C=C1)C(=O)NC2=C3C=CNC3=NC=C2)N
Procedure, shortened: as §1

duvelisib = compound: C[C@H](Nc1ncnc2nc[nH]c12)c1cc2cccc(Cl)c2c(=O)n1-c1ccccc1 [duvelisib]
Procedure, shortened: as §1

gandotinib = compound: Cc1cc(Nc2cc(CN3CCOCC3)c3nc(C)c(Cc4ccc(Cl)cc4F)n3n2)n[nH]1 [gandotinib]
Procedure, shortened: as §1

tozasertib = compound: Cc1cc(Nc2cc(N3CCN(C)CC3)nc(Sc3ccc(NC(=O)C4CC4)cc3)n2)n[nH]1 [tozasertib]
Procedure, shortened: as §1

[4] = compound: Cc1cc(SCc2sc(-c3ccc(C(F)(F)F)cc3)nc2C)ccc1OCC(=O)O
Procedure, shortened: as §1

doramapimod = compound: Cc1ccc(-n2nc(C(C)(C)C)cc2NC(=O)Nc2ccc(OCCN3CCOCC3)c3ccccc23)cc1 [doramapimod]
Procedure, shortened: as §1

ispinesib = compound: Cc1ccc(C(=O)N(CCCN)[C@@H](c2nc3cc(Cl)ccc3c(=O)n2Cc2ccccc2)C(C)C)cc1 [ispinesib]
Procedure, shortened: as §1

bafetinib = compound: Cc1ccc(NC(=O)c2ccc(CN3CC[C@H](N(C)C)C3)c(C(F)(F)F)c2)cc1Nc1nccc(-c2cncnc2)n1 [bafetinib]
Procedure, shortened: as §1

[5] = compound: Cc1cccc(CC(=O)N2CCc3c2ccc(-c2cn(C)c4ncnc(N)c24)c3F)n1
Procedure, shortened: as §1

nilotinib = compound: Cc1cn(-c2cc(NC(=O)c3ccc(C)c(Nc4nccc(-c5cccnc5)n4)c3)cc(C(F)(F)F)c2)cn1 [nilotinib]
Procedure, shortened: as §1

[6] = compound: Cc1nc(Nc2n[nH]c3c2CN(C(=O)N[C@H](CN(C)C)c2ccccc2)C3(C)C)c2sccc2n1
Procedure, shortened: as §1

dasatinib = compound: Cc1nc(Nc2ncc(C(=O)Nc3c(C)cccc3Cl)s2)cc(N2CCN(CCO)CC2)n1 [dasatinib]
Procedure, shortened: as §1

[7] = compound: Cc1ncc(-c2ccnc(Nc3ccc(S(C)(=O)=O)cc3)n2)n1C(C)C
Procedure, shortened: as §1

[8] = compound: Cn1cc(-c2ccc3c(c2)CCN3C(=O)Cc2cccc(C(F)(F)F)c2)c2c(N)ncnc21
Procedure, shortened: as §1

[9] = compound: Cn1cc(-c2ccc3nnc(C(F)(F)c4ccc5ncccc5c4)n3n2)cn1
Procedure, shortened: as §1

tipifarnib = compound: Cn1cncc1[C@@](N)(c1ccc(Cl)cc1)c1ccc2c(c1)c(-c1cccc(Cl)c1)cc(=O)n2C [tipifarnib]
Procedure, shortened: as §1

mubritinib = compound: FC(F)(F)c1ccc(/C=C/c2nc(COc3ccc(CCCCn4ccnn4)cc3)co2)cc1 [mubritinib]
Procedure, shortened: as §1

Measured: log2 fold change

MEMO1 (UniProt Q9Y316)
inactive: [1] 0.01 | crizotinib -0.042 | [2] 0.074 | [3] -0.029 | duvelisib 0.062 | gandotinib -0.073 | tozasertib -0.029 | [4] 0.037 | doramapimod 0.031 | ispinesib 0.017 | bafetinib 0.018 | [5] 0.042 | nilotinib 0.019 | [6] -0.03 | dasatinib -0.151 | [7] -0.076 | [8] 0.096 | [9] 0.026 | tipifarnib -0.073 | mubritinib 0.129

MCTS1 isoform 3 (UniProt Q9ULC4)
inactive: [1] 0.011 | crizotinib 0.037 | [2] 0.019 | [3] -0.072 | duvelisib 0.001 | gandotinib 0.021 | tozasertib -0.004 | [4] -0.018 | doramapimod -0.035 | ispinesib 0.044 | bafetinib -0.006 | [5] -0.008 | nilotinib 0.004 | [6] 0.029 | dasatinib 0.035 | [7] -0.006 | [8] 0.034 | [9] -0.038 | tipifarnib 0.015 | mubritinib -0.015

MCM7 (UniProt P33993)
inactive: [1] 0.028 | crizotinib -0.024 | [2] 0.033 | [3] -0.126 | duvelisib 0.004 | gandotinib -0.081 | tozasertib 0.008 | [4] -0.003 | doramapimod -0.003 | ispinesib 0.008 | bafetinib -0.035 | [5] 0.018 | nilotinib -0.017 | [6] -0.014 | dasatinib -0.066 | [7] -0.042 | [8] 0.021 | [9] 0.049 | tipifarnib -0.021 | mubritinib 0.036

Quoted from the entries so far (two entries):
MCTS1 isoform 3 (UniProt Q9ULC4)
inactive: [1] 0.011 | crizotinib 0.037 | [2] 0.019 | [3] -0.072 | duvelisib 0.001 | gandotinib 0.021 | tozasertib -0.004 | [4] -0.018 | doramapimod -0.035 | ispinesib 0.044 | bafetinib -0.006 | [5] -0.008 | nilotinib 0.004 | [6] 0.029 | dasatinib 0.035 | [7] -0.006 | [8] 0.034 | [9] -0.038 | tipifarnib 0.015 | mubritinib -0.015

MCM7 (UniProt P33993)
inactive: [1] 0.028 | crizotinib -0.024 | [2] 0.033 | [3] -0.126 | duvelisib 0.004 | gandotinib -0.081 | tozasertib 0.008 | [4] -0.003 | doramapimod -0.003 | ispinesib 0.008 | bafetinib -0.035 | [5] 0.018 | nilotinib -0.017 | [6] -0.014 | dasatinib -0.066 | [7] -0.042 | [8] 0.021 | [9] 0.049 | tipifarnib -0.021 | mubritinib 0.036

(listing goes on)

MGAT2 (UniProt Q10469)
inactive: [1] -0.009 | crizotinib -0.047 | [2] 0.052 | [3] -0.03 | duvelisib 0.018 | gandotinib -0.015 | tozasertib 0.031 | [4] 0.03 | doramapimod -0.039 | ispinesib 0.015 | bafetinib -0.078 | [5] -0.029 | nilotinib -0.004 | [6] 0.017 | dasatinib -0.02 | [7] 0.016 | [8] 0.047 | [9] -0.048 | tipifarnib 0.019 | mubritinib 0.048

MCUB (UniProt Q9NWR8)
inactive: [1] -0.044 | crizotinib 0.079 | [2] -0.056 | [3] -0.012 | duvelisib 0.126 | gandotinib -0.155 | tozasertib -0.063 | [4] -0.031 | doramapimod -0.059 | ispinesib -0.074 | bafetinib -0.075 | [5] 0.062 | nilotinib -0.156 | [6] 0.206 | dasatinib -0.134 | [7] 0.056 | [8] 0.005 | [9] -0.019 | tipifarnib 0 | mubritinib -0.027

ME1 (UniProt P48163)
inactive: [1] 0.015 | crizotinib 0.042 | [2] 0.031 | [3] -0.07 | duvelisib 0.07 | gandotinib 0.04 | tozasertib -0.032 | [4] -0.034 | doramapimod -0.012 | ispinesib 0.037 | bafetinib -0.031 | [5] -0.041 | nilotinib -0.007 | [6] 0.011 | dasatinib -0.005 | [7] -0.007 | [8] 0.041 | [9] -0.019 | tipifarnib 0.007 | mubritinib 0.035

MAT1A (UniProt Q00266)
inactive: [1] 0.068 | crizotinib 0.079 | [2] -0.055 | [3] -0.051 | duvelisib -0.004 | gandotinib 0.135 | tozasertib -0.033 | [4] -0.041 | doramapimod -0.052 | ispinesib 0.005 | bafetinib -0.083 | [5] -0.02 | nilotinib 0.055 | [6] -0.023 | dasatinib 0.101 | [7] -0.009 | [8] -0.021 | [9] -0.005 | tipifarnib 0.081 | mubritinib 0.058

MCAT (UniProt Q8IVS2)
inactive: [1] -0.061 | crizotinib 0.028 | [2] -0.075 | [3] 0.077 | duvelisib -0.026 | gandotinib 0.029 | tozasertib -0.028 | [4] 0.021 | doramapimod 0.025 | ispinesib 0.012 | bafetinib 0.032 | [5] 0.012 | nilotinib -0.025 | [6] 0.01 | dasatinib 0.029 | [7] -0.009 | [8] -0.044 | [9] -0.024 | tipifarnib -0.014 | mubritinib 0.014

MAZ isoform 2 (UniProt P56270)
inactive: [1] -0.104 | crizotinib 0.272 | [2] -0.392 | [3] 0.058 | duvelisib -0.051 | gandotinib 0.118 | tozasertib 0.029 | [4] -0.007 | doramapimod 0.098 | ispinesib -0.017 | bafetinib 0.109 | [5] 0.016 | nilotinib 0.02 | [6] 0.072 | dasatinib 0.07 | [7] -0.017 | [8] -0.247 | [9] -0.115 | tipifarnib 0.154 | mubritinib -0.107

MCM6 (UniProt Q14566)
inactive: [1] 0.016 | crizotinib -0.001 | [2] 0.051 | [3] -0.048 | duvelisib 0.015 | gandotinib -0.096 | tozasertib 0.032 | [4] 0.008 | doramapimod -0.006 | ispinesib 0.019 | bafetinib -0.048 | [5] 0.022 | nilotinib -0.053 | [6] -0.015 | dasatinib -0.063 | [7] -0.052 | [8] 0.045 | [9] 0.07 | tipifarnib -0.031 | mubritinib 0.056

METTL3 (UniProt Q86U44)
inactive: [1] 0.05 | crizotinib -0.005 | [2] 0.055 | [3] -0.043 | duvelisib 0.039 | gandotinib 0.004 | tozasertib 0.006 | [4] 0.016 | doramapimod 0.018 | ispinesib 0.028 | bafetinib -0.02 | [5] -0.014 | nilotinib -0.015 | [6] 0.002 | dasatinib -0.012 | [7] -0.018 | [8] 0.049 | [9] -0.021 | tipifarnib 0.008 | mubritinib 0.072

MECP2 isoform 2 (UniProt P51608)
inactive: [1] 0.014 | crizotinib 0.073 | [2] -0.403 | [3] 0.331 | duvelisib -0.11 | gandotinib 0.21 | tozasertib 0.024 | [4] -0.037 | doramapimod 0.176 | ispinesib -0.158 | bafetinib 0.122 | [5] -0.012 | nilotinib -0.069 | [6] -0.043 | dasatinib 0.242 | [7] -0.058 | [8] -0.234 | [9] -0.063 | tipifarnib 0.073 | mubritinib -0.041

MIA3 (UniProt Q5JRA6)
inactive: [1] 0.003 | crizotinib 0.078 | [2] -0.03 | [3] 0.026 | duvelisib -0.006 | gandotinib -0.051 | tozasertib 0.029 | [4] -0.005 | doramapimod -0.006 | ispinesib 0.022 | bafetinib -0.061 | [5] -0.012 | nilotinib 0.017 | [6] -0.054 | dasatinib -0.014 | [7] -0.019 | [8] -0.054 | [9] -0.002 | tipifarnib 0.029 | mubritinib 0.015

MBTPS1 (UniProt Q14703)
inactive: [1] 0.027 | crizotinib -0.059 | [2] -0.059 | [3] 0.022 | duvelisib -0.065 | gandotinib 0.079 | tozasertib 0.014 | [4] 0.026 | doramapimod 0.058 | ispinesib -0.197 | bafetinib 0.11 | [5] -0.008 | nilotinib 0.053 | [6] 0.02 | dasatinib 0.024 | [7] -0.004 | [8] -0.03 | [9] 0.019 | tipifarnib 0.104 | mubritinib 0.095

MAVS (UniProt Q7Z434)
inactive: [1] -0.003 | crizotinib 0.008 | [2] 0.037 | [3] -0.061 | duvelisib 0.008 | gandotinib -0.023 | tozasertib 0 | [4] 0.034 | doramapimod -0.008 | ispinesib 0.072 | bafetinib -0.038 | [5] 0.016 | nilotinib 0 | [6] 0.03 | dasatinib -0.025 | [7] -0.016 | [8] 0.087 | [9] 0.015 | tipifarnib 0.028 | mubritinib 0.031

MCFD2 (UniProt Q8NI22)
inactive: [1] -0.004 | crizotinib 0.138 | [2] 0.332 | [3] -0.154 | duvelisib 0.214 | gandotinib 0.173 | tozasertib -0.024 | [4] -0.065 | doramapimod 0.075 | ispinesib 0.211 | bafetinib -0.119 | [5] -0.14 | nilotinib 0.09 | [6] 0 | dasatinib -0.005 | [7] -0.042 | [8] 0.032 | [9] 0.09 | tipifarnib 0.414 | mubritinib -0.003
